From patent US10545073B2, “Method and instrument for extracting a component from a sample” (priority 2016, dated 2020)

experiment: SPME extraction with HLB-PAN coated sampling instrument from spiked phosphate buffer, 15 septa puncture samplings, LC-MS/MS; conditions: pH = 7.2, 1M phosphate buffer saline spiked at 30 ng/mL; 2 minute extraction, vortex agitation; over 15 septa puncture events

Row | Compound | ng extracted [ng]
1 | COc1ccc2c3c1O[C@H]1[C@@H](O)C=C[C@H]4[C@@H](C2)N(C)CC[C@@]341 [Codeine] | 1
2 | CN1C(=O)CN=C(c2ccccc2)c2cc(Cl)ccc21 [Diazepam] | 4
3 | CNCCC(Oc1ccc(C(F)(F)F)cc1)c1ccccc1 (stereo not drawn) [Fluoxetine] | 10
4 | Fc1ccc([C@@H]2CCNC[C@H]2COc2ccc3c(c2)OCO3)cc1 [Paroxetine] | 7
5 | CC(C)(C)NCC(O)c1ccc(O)c(CO)c1 (stereo not drawn) [Salbutamol] | 0.1
6 | CN[C@H]1CC[C@@H](c2ccc(Cl)c(Cl)c2)c2ccccc21 [Sertraline] | 12
